# In PubChem BioAssay AID1458 (National Center for Advancing Translational Sciences (NCATS), 2008):
# Among all 210,000 compounds or so, about 5,900 (2.8%) were called active. The source calls these results inconclusive, neither active nor inactive. The call rests on the fitted dose curve; in most records, active means well fitted activation curve with a large enough effect; inconclusive means small, poorly fitted or top-dose-only effect; inactive means no such curve, though single readings can be large or run the other way.
# Test: qHTS Assay for Enhancers of SMN2 Splice Variant Expression; further: nearly all actives have a fitted effect of over 55% in size
# Details: HEK293 SMN2-luciferase splicing reporter, luminescence, 30-36 h
# Potency means the concentration at half of the fitted maximal effect.
row,SMILES,Potency
1,CCc1ccc(OP(C)(=O)O)cc1,inconclusive: 17.8 nM
2,CCOC(=O)c1ccc(NP(C)(=O)Oc2ccc(OC)cc2)cc1 (configuration not stated),inconclusive: 5620 nM
